In PubChem BioAssay AID540256 (National Center for Advancing Translational Sciences (NCATS), 2011):
Hit rate of the full screen: of about 300,000 compounds, about 3,700 (1.2%) were called active. The shares of active, inactive and inconclusive entries below differ from those in the screen. The call rests on the fitted dose curve; tested in HEK293 cells. Potencies beside an inconclusive call are fits to weak or partial responses and may not hold up.

test: qHTS for Inhibitors of binding or entry into cells for Lassa Virus; conditions: Lassa virus pseudotype entry inhibition, cell reporter; activity change, negative = inhibition: at 37.9 µM (top of the series) unless noted; further: nearly all actives have a fitted effect of over 50% in size
On the % scale 0 is the no-effect control and ±100 the full control effect; potency means the concentration at half of the fitted maximal effect.

Row | SMILES | Potency | activity change, negative = inhibition
1 | CN=C1C=C/C(=N/N=c2\ccn(O)cc2C)C=C1C | inconclusive: 2.51 µM [inhibitor, partial curve, poor fit] | –
2 | Cc1ccccc1Nc1sc(C(=O)c2ccc3c(c2)OCO3)c(N)c1S(=O)(=O)c1ccccc1 | inconclusive: 11.2 µM [inhibitor, partial curve, poor fit] | –
3 | Cc1ccc(N=C2NC(=O)/C(=C\c3ccc(C)s3)S2)cc1 | inconclusive: 0.708 µM [inhibitor, full curve, poor fit] | –
4 | c1ccc(Oc2cccc3cccnc23)nc1 | – | inactive: -5.99%
5 | CC(C)=CCCC(C)NC(=O)NC1CCCCC1 (stereo unspecified) | inconclusive: 1.12 µM [inhibitor, single point] | –
6 | O=C(Cn1c(=O)oc2cc(S(=O)(=O)N3CCCCCC3)ccc21)Nc1cccc(C(F)(F)F)c1 | inconclusive: 35.5 µM [inhibitor, partial curve, poor fit] | –
7 | CCn1c(=O)cc(SCC(=O)Nc2ccc(C)c(F)c2)c2ccccc21 | – | inactive: 3.49% [at 46.1 µM]
8 | C=CCOC(=O)C1=C(C)NC(=S)NC1c1cccs1 (stereo unspecified) | inconclusive: 29.1 µM [inhibitor, single point] | –
9 | COc1ccc(C(=O)c2ccc([N+](=O)[O-])cc2)c(OC)c1OC | inconclusive: 0.126 µM [inhibitor, full curve, poor fit] | –
10 | Cc1nc(N)sc1-c1csc(Nc2ncccn2)n1 | – | inactive: 2.95%
11 | CCCCN=C1NC(=O)C(CC(=O)Nc2ccc(Cl)cc2)S1 (stereo unspecified) | inconclusive: 3.66 µM [activator, full curve, poor fit] | –
12 | CC1(c2ccccc2)NC(=O)N(CC(=O)Nc2nnc(C3CC3)s2)C1=O (stereo unspecified) | inconclusive: 3.16 µM [activator, single point] | –
13 | Cc1nc(NC(=O)CCc2ccccc2)ccc1Br | – | inactive: -22.2%
14 | Cc1cc[n+](CC(=O)N2CCCc3ccccc32)cc1 | – | inactive: 4.94%
15 | O=C(O)c1ccc2ncc(NC(=O)c3ccc(F)cc3)c(=O)n2c1 | inconclusive: 23.1 µM [activator, single point] | –
16 | Cc1cc(C)cc(N=Cc2[nH]c3ccc(Br)c(Cl)c3c2O)c1 | – | inactive: 2.43%
17 | O=C(COC(=O)c1cc([N+](=O)[O-])ccc1N1CCOCC1)Nc1cc(F)ccc1F | inconclusive: 6.31 µM [inhibitor, full curve, poor fit] | –
18 | O=C(Nc1ccsc1C(=O)O)c1ccc(Cl)cc1 | inconclusive: 1 µM [activator, partial curve, poor fit] | –
19 | CCCCn1c(=O)[nH]c2nc3cc(N)ccc3nc2c1=O | inconclusive: 1.26 µM [inhibitor, single point] | –
20 | Nc1ccc(C2(c3ccc(N)cc3)c3ccccc3C(=O)c3ccccc32)cc1 | inconclusive: 35.5 µM [inhibitor, single point] | –
21 | Cc1cc(SCC(=O)Nc2cccc(S(=O)(=O)NC3=NCCCCC3)c2)c(C)cc1Br | inconclusive: 20.6 µM [inhibitor, partial curve, poor fit] | –
22 | COc1ccc(N2C(=O)C3C(C2=O)C3(c2ccccc2)c2ccccc2)cc1 (stereo unspecified) | inconclusive: 14.1 µM [inhibitor, partial curve, poor fit] | –

Row | SMILES | Potency | activity change, negative = inhibition
23 | Cc1cc(C(=O)N/N=C/c2cccs2)n[nH]1 | inconclusive: 8.91 µM [activator, partial curve, poor fit] | –
24 | N#C/C(=C(/O)C(Cl)c1ccccc1)c1nc2ccccc2s1 (stereo unspecified) | inconclusive: 29.1 µM [inhibitor, single point] | –
25 | O=C(COc1ccc(S(=O)(=O)NC2CCCCC2)cc1)N1CCN(c2cccc(Cl)c2)CC1 | inconclusive: 7.3 µM [inhibitor, single point] | –
26 | C[C@H]1[C@@H](c2ccccc2)Oc2ccc(Cl)cc2S(=O)(=O)N1Cc1cccc(F)c1 | inconclusive: 3.96 µM [activator, single point] | –
27 | CCOCCCNC(=O)c1ccc(OC)cc1 | inconclusive: 29.1 µM [activator, single point] | –
28 | CC(=O)N(C)c1ccc(NC(=O)Cc2cccc3ccccc23)cc1 | – | inactive: 17.9%
29 | CC(C)C(=O)N1CCN(c2ccc(NC(=O)c3ccc([N+](=O)[O-])o3)cc2Cl)CC1 | inconclusive: 11.2 µM [inhibitor, partial curve, poor fit] | –
30 | Cc1ccc(C(c2nnnn2CCc2ccccc2)N2CCC(C)CC2)cc1 (stereo unspecified) | inconclusive: 25.1 µM [inhibitor, single point] | –
31 | Cc1ccc(C(=O)NCC(=O)OCC(=O)Nc2cc(S(=O)(=O)N3CCOCC3)ccc2Cl)s1 | – | inactive: 7.62%
32 | Cc1ccc(S(=O)(=O)CCC(=O)Nc2sccc2C#N)cc1 | inconclusive: 0.316 µM [inhibitor, full curve, poor fit] | –
33 | O=C(c1ccc2ccccc2c1)C1CCCN(C(=O)c2noc3c2CCCC3)C1 (stereo unspecified) | inconclusive: 20 µM [inhibitor, single point] | –
34 | CC(Oc1cccc(Cl)c1)C(=O)Nc1cc(S(=O)(=O)N2CCOCC2)ccc1N1CCCCC1 (stereo unspecified) | inconclusive: 7.08 µM [inhibitor, full curve] | –
35 | CC(C)CC(c1nnnn1C(C)C)N1CCN(c2ccccc2)CC1 (stereo unspecified) | inconclusive: 7.94 µM [inhibitor, partial curve, poor fit] | –
36 | Cn1c(N2CCOCC2)c(/C=N/OC(=O)c2ccc(F)cc2)c2ccccc21 | inconclusive: 5.8 µM [inhibitor, full curve, poor fit] | –
37 | CCOc1ccc(C(=O)OCC(=O)NC(C)C)cc1 | inconclusive: 5.01 µM [inhibitor, partial curve, poor fit] | –
38 | Cc1cc(=O)[nH]c(SCC(=O)Nc2nonc2C)n1 | inconclusive: 3.16 µM [inhibitor, partial curve, poor fit] | –
39 | COCCNC(=O)Cn1c(=O)n(Cc2ccco2)c(=O)c2ccccc21 | inconclusive: 0.164 µM [activator, full curve, poor fit] | –
40 | COc1cccc(-n2c(SCC(=O)Nc3ccc4c(c3)CCC4)nc3ccccc3c2=O)c1 | inconclusive: 35.5 µM [inhibitor, single point] | –
41 | COc1ccc(Cc2nnc(Nc3ccccc3OC)[nH]c2=O)cc1 | – | inactive: 2.69%
42 | Oc1ccc(-c2nc3ccccc3nc2-c2ccc(O)cc2O)c(O)c1 | inconclusive: 11.2 µM [inhibitor, single point] | –
43 | CC(=O)N(CCCN1CCOCC1)Cc1ccncc1 | inconclusive: 0.794 µM [activator, full curve, poor fit] | –
44 | COCCNC(=O)CCC1CCN(Cc2cccc(Oc3ccccc3)c2)CC1 | – | inconclusive: 3.15% [activator]

Row | SMILES | Potency | activity change, negative = inhibition
45 | COc1ccc(C)cc1S(=O)(=O)N1CCC(C(=O)N2CCOCC2)CC1 | – | inactive: 18%
46 | Cc1ccc(Cc2nnc3n(-c4ccccc4)nc(C(=O)c4ccccc4)n3c2=O)cc1 | inconclusive: 23.1 µM [inhibitor, single point] | –
47 | Nc1nc(SCC(=O)c2cc(F)ccc2F)n[nH]1 | – | inactive: 13% [at 46.1 µM]
48 | COC(=O)c1[nH]c2ccc(C)cc2c1NS(=O)(=O)c1ccc(F)c(C)c1 | inconclusive: 35.5 µM [inhibitor, single point] | –
49 | Cc1ccc(C2NC(=O)c3ccccc3N2)c(C)c1 (stereo unspecified) | inconclusive: 1.26 µM [inhibitor, partial curve] | –
50 | Cc1ccc(C)c(CNC(=O)C2CCCCN2S(=O)(=O)c2ccc(F)cc2)c1 (stereo unspecified) | inconclusive: 0.562 µM [activator, partial curve, poor fit] | –
51 | COc1cc(Cl)ccc1OCc1cc(C(=O)N2CC[C@@H]3CCCC[C@H]3C2)no1 | inconclusive: 6.31 µM [inhibitor, single point] | –
52 | CC(OC(=O)C1CCN(S(=O)(=O)c2ccc(Cl)cc2)CC1)C(=O)N1CCc2ccccc21 (stereo unspecified) | inconclusive: 14.1 µM [inhibitor, partial curve, poor fit] | –
53 | Cn1cccc1C(=O)OCC(=O)Nc1sccc1C#N | inconclusive: 22.4 µM [inhibitor, single point] | –
54 | CCC(C)NCCOCCOc1ccc(Cl)c2ccccc12 (stereo unspecified) | inconclusive: 14.1 µM [inhibitor, single point] | –
55 | CCc1ccc2oc(C(=O)N3CCN(c4ccc(OC)cc4)CC3)cc(=O)c2c1 | – | inconclusive: 0.518% [activator]
56 | O=C(CN1CCN(c2ccc(Cl)cc2)CC1)Nc1ccc(F)cc1 | inconclusive: 23.1 µM [inhibitor, single point] | –
57 | COCCCn1c(SCc2ccccc2F)nc2c(sc3ccccc32)c1=O | inconclusive: 2.24 µM [inhibitor, partial curve, poor fit] | –
58 | O=C(CSc1nc2ccccc2c(=O)n1-c1ccccc1F)Nc1ccc2c(c1)CCC2 | inconclusive: 29.1 µM [inhibitor, single point] | –
59 | c1ccc(C2CC3CC4(CCCC4)N2O3)cc1 (stereo unspecified) | inconclusive: 0.164 µM [inhibitor, full curve, poor fit] | –
60 | C/C(=N\NC(=O)c1cccc(Cl)c1)C1C(=O)c2ccccc2C1=O | inconclusive: 32.6 µM [inhibitor, single point] | –
61 | Cc1cccc(CC(Cc2nc3ccccc3[nH]2)c2nc3ccccc3[nH]2)c1 (stereo unspecified) | inconclusive: 11.2 µM [inhibitor, partial curve, poor fit] | –
62 | O=c1c2ccccc2nc(/C=C/c2ccc([N+](=O)[O-])cc2)n1CCCO | inconclusive: 35.5 µM [inhibitor, single point] | –
63 | CCOc1ccc(N2C(=O)c3cccnc3C2Nc2ccc(Cl)cc2)cc1 (stereo unspecified) | – | inactive: 7.13%
64 | O=C(O)c1ccccc1C(=O)OCc1ccccc1 | – | inactive: 8.74%
65 | NC(=S)N/N=C/c1ccccc1 | – | inactive: 5.72%
66 | CCOC(=O)Cn1c(=O)c2c(nc(N3CCCCC3)n2Cc2ccccc2)n(C)c1=O | inconclusive: 3.98 µM [inhibitor, full curve] | –

Molecules listed so far containing a COOH group:
Row | SMILES | Potency | activity change, negative = inhibition
15 | O=C(O)c1ccc2ncc(NC(=O)c3ccc(F)cc3)c(=O)n2c1 | inconclusive: 23.1 µM [activator, single point] | –
18 | O=C(Nc1ccsc1C(=O)O)c1ccc(Cl)cc1 | inconclusive: 1 µM [activator, partial curve, poor fit] | –
64 | O=C(O)c1ccccc1C(=O)OCc1ccccc1 | – | inactive: 8.74%

Reprinted at random: two entries already listed.
Row | SMILES | Potency | activity change, negative = inhibition
55 | CCc1ccc2oc(C(=O)N3CCN(c4ccc(OC)cc4)CC3)cc(=O)c2c1 | – | inconclusive: 0.518% [activator]
49 | Cc1ccc(C2NC(=O)c3ccccc3N2)c(C)c1 (stereo unspecified) | inconclusive: 1.26 µM [inhibitor, partial curve] | –
